According to PubChem BioAssay AID445 (National Center for Advancing Translational Sciences (NCATS), 2006):
The list shows a part of the results. These are further read-outs of the screen, such as a control signal, another cell line or another target. No call is given for them. The list favours compounds with an active or inconclusive main result. Potencies come from curve fits of mixed quality, noted in brackets.

Assay: IkB Signaling
Settings: ABC-DLBCL IkBa-CBG/CBR dual luciferase ratio (green luciferase fused to IkBa over red control in OCI-Ly3 lymphoma cells), 4 h
Procedure, shortened: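 In this assay, an IκBα–CBG68 fusion accumulates when IKK-driven degradation is blocked; native CBR normalizes for cell number. OCI-Ly3 cells were treated 4 h with compound and doxycycline, then green and red light read after Chroma-Glo addition.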

[1] = measured here: control luc red channel unless noted

CCC/C(O)=C1\C(=O)CC(C)(C)CC1=Nc1ccccc1OC
AC50 [1]: 20 µM [falling, partial curve]

O=C(CC1c2ccccc2Oc2ccccc21)N1CCN(c2ccccn2)CC1
AC50 [1]: 15.8 µM [falling, partial curve]

CCOc1cccc(C(c2c(C)n(C)n(-c3ccccc3)c2=O)c2c(C)n(C)n(-c3ccccc3)c2=O)c1OC
AC50 [1]: 20 µM [falling, partial curve]

Cc1ccnc(NC(=O)C2CCN(S(=O)(=O)c3cccc4nsnc34)CC2)c1
AC50 [1]: 12.6 µM [falling, partial curve]

CCOc1ccccc1NC(=O)Cn1c(=O)n(-c2ccc(F)cc2)c(=O)c2sc3ccccc3c21
AC50 [1]: 15.8 µM [falling, partial curve]

COc1cccc(-n2c(=O)c3sc4ccccc4c3n(CC(=O)NC3CCCCC3)c2=O)c1
AC50 [1]: 10 µM [rising, partial curve, poor fit]

O=C(C1CCCCN1S(=O)(=O)c1ccc(F)cc1)N1CCN(c2ccccc2F)CC1 (configuration not stated)
AC50 [1]: 12.6 µM [falling, partial curve]

Cn1c(=O)oc2cc(S(=O)(=O)NCCC(=O)Nc3ccc(F)cc3F)ccc21
AC50 [1]: 25.1 µM [falling, single point]

COc1ccccc1-n1cnnc1SC1CCOC1=O (configuration not stated)
AC50 [1]: 0.0501 µM [falling, full curve]

CCCCn1c(=N)n(CC(O)COc2cccc(C)c2)c2ccccc21 (configuration not stated)
AC50 [1]: 12.6 µM [falling, partial curve]

CCCCC(=O)NC1CC(=O)N(c2ccc3c(c2)OCCO3)C1 (configuration not stated)
AC50 [1]: 2.51 µM [rising, partial curve]

CC1(C)Cc2c(sc3c2c(=N)n(Cc2ccco2)c(=O)n3CC(=O)Nc2ccccc2)CO1
AC50 [1]: 12.6 µM [falling, partial curve]

CCN(CCCNC(=O)C1CCC(=O)N1Cc1ccc(C)cc1)c1cccc(C)c1 (configuration not stated)
AC50 [1]: 20 µM [falling, partial curve]

CCOc1ccc(CCNC(=O)c2cn(C)c3ccc(S(=O)(=O)N4CCCCC4)cc3c2=O)cc1OCC
AC50 [1]: 3.16 µM [rising, partial curve]

CCCc1cc(-c2[nH]ncc2-c2ccc(C(=O)OCC)o2)c(O)cc1O
AC50 [1]: 20 µM [falling, partial curve]

COc1ccccc1C(=O)Nc1cccc(C(=O)OCc2cc(=O)n3cc(C)sc3n2)c1
AC50 [1]: 5.01 µM [falling, partial curve]

O=C(CCn1cnc2ccccc2c1=O)NCc1ccccc1Cl
AC50 [1]: 3.98 µM [falling, partial curve, poor fit]

O=C(OCc1cc2ccccc2[nH]c1=O)c1ccccc1
AC50 [1]: 10 µM [falling, partial curve]

COc1ccc(-c2nc(C)c(CCNS(=O)(=O)c3cc(Cl)ccc3Cl)s2)cc1
AC50 [1]: 39.8 µM [falling, single point]

COC(=O)CN1C(=O)CSc2ccc(S(=O)(=O)Nc3cc(C)ccc3C)cc21
AC50 [1]: 15.8 µM [falling, partial curve]

Cc1nc2cccnc2n1-c1cccc(C(=O)N2CCN(c3cccc(Cl)c3)CC2)c1
AC50 [1]: 15.8 µM [falling, partial curve]

N#Cc1nc(-c2ccc(OCc3ccccc3)cc2)oc1NCCCN1CCOCC1
AC50 [1]: 15.8 µM [falling, partial curve]

CCCn1c(=O)n(-c2ccccc2Cl)c(=O)c2sc3ccccc3c21
AC50 [1]: 2.51 µM [rising, partial curve]

Cc1cc(C)c(NC(=O)Cn2nc(-c3ccncc3)ccc2=O)c(C)c1
AC50 [1]: 6.31 µM [falling, partial curve, poor fit]

O=C(CN1C(=O)C(c2ccc(F)cc2)=NC12CCCCCC2)Nc1ccccc1Cl
AC50 [1]: 15.8 µM [falling, partial curve]

CC1=Nc2cc(C(=O)NCc3ccccc3Cl)ccc2Sc2c(C)ccc(C)c21
AC50 [1]: 3.98 µM [rising, partial curve]

Cc1cc(Nc2nc3ccccc3[nH]c2=O)n(-c2ccccc2)n1
AC50 [1]: 25.1 µM [rising, partial curve] [measured here: IkB-luc green channel]

COc1ccc(-c2ccc3c(N)c(C(=O)Nc4ccc(C(F)(F)F)cc4)sc3n2)cc1OC
AC50 [1]: 3.16 µM [falling, full curve]

CCCCn1c(SCC(=O)c2ccccc2)nc2c(sc3ccccc32)c1=O
AC50 [1]: 12.6 µM [rising, partial curve]

CCN(C(=O)Cn1nnc2sc3c(c2c1=O)CCC(C(C)(C)C)C3)c1cccc(C)c1 (configuration not stated)
AC50 [1]: 25.1 µM [falling, partial curve]

COC(=O)c1cc2oc3ccccc3c2n1Cc1nc(-c2ccc(Cl)cc2)oc1C
AC50 [1]: 15.8 µM [rising, partial curve]

O=C(c1ccc(Cn2c(=O)[nH]c3ccccc3c2=O)cc1)N1CCN(c2ccc(Cl)cc2)CC1
AC50 [1]: 12.6 µM [falling, partial curve]

O=C(Nc1nc2c(s1)CCCC2)C1COc2ccccc2O1 (configuration not stated)
AC50 [1]: 10 µM [falling, partial curve]

CC(=O)c1ccc(N2CCN(C(=O)C3CCCN(S(=O)(=O)c4ccc(Br)s4)C3)CC2)cc1 (configuration not stated)
AC50 [1]: 25.1 µM [falling, partial curve]

Cn1c(C(=O)N(Cc2ccccc2)Cc2ccccn2)cc2sccc21
AC50 [1]: 25.1 µM [falling, single point]

Cc1ccc(-n2nc3ccc(NC(=O)COc4ccccc4C)cc3n2)cc1
AC50 [1]: 2.51 µM [rising, full curve]

Cc1ccc(C)c(N2CCN(C(=O)C3CCCN(S(=O)(=O)c4c(C)noc4C)C3)CC2)c1 (configuration not stated)
AC50 [1]: 12.6 µM [falling, partial curve]

OCCN1CCN(C(c2cccs2)c2ccc3cccnc3c2O)CC1 (configuration not stated)
AC50 (measured here: IkB-luc green channel): 6.31 µM [rising, single point] | AC50 (measured here: control luc red channel): 39.8 µM [falling, single point]

CC1CCN(S(=O)(=O)c2ccc3c(c2)N(CC(=O)NC(C)c2ccccc2)C(=O)CS3)CC1 (configuration not stated)
AC50 [1]: 20 µM [falling, partial curve]

CC(C)c1nc(N2CCN(C(=O)c3ccco3)CC2)c2c3c(sc2n1)CCCC3
AC50 [1]: 12.6 µM [falling, partial curve]

CC(C)Cn1cc(NC(=O)N2CCN(c3cccc(Cl)c3)CC2)c2ccccc2c1=O
AC50 [1]: 25.1 µM [falling, single point]

CCSc1nnc(NC(=O)c2cccs2)s1
AC50 [1]: 10 µM [falling, partial curve]

COc1ccc(N2CCN(Cc3nc(N)nc(Nc4ccc(C)c(Cl)c4)n3)CC2)cc1
AC50 [1]: 10 µM [falling, partial curve]

CCc1ccc(NC(=O)N2CCOc3ccc(Cl)cc32)cc1
AC50 [1]: 31.6 µM [falling, single point]

COc1cc(Cl)c(S(=O)(=O)NCCc2c(C)[nH]c3c(C)cccc23)cc1Cl
AC50 [1]: 39.8 µM [falling, single point]

COC(=O)c1ccc(NC(=O)CC2C(=O)N(c3cccc(OC)c3)C(=O)N2Cc2cccs2)cc1 (configuration not stated)
AC50 [1]: 20 µM [falling, partial curve]

CCOc1ccc(-c2cc(CCCC(=O)Nc3cc(OC)ccc3OC)no2)cc1
AC50 [1]: 0.316 µM [falling, full curve]

C=CCSc1nnc2c(n1)[nH]c1c(C)cccc12
AC50 [1]: 12.6 µM [falling, partial curve]

Cc1ccc(-c2nc(NC(=O)CSc3cc(C)c4ccccc4n3)ns2)cc1
AC50 [1]: 15.8 µM [falling, partial curve]

CCCCN(CC)C(=O)CSc1nc2n[nH]c(C)c2c(=N)n1-c1cccc(Cl)c1
AC50 [1]: 7.94 µM [falling, partial curve]

Cc1ccc(NC(=O)Cc2ccc(-n3c(C)nc4cccnc43)cc2)c(Cl)c1
AC50 [1]: 5.01 µM [falling, partial curve]

CCC(=O)N1CCc2cc(Br)cc(S(=O)(=O)CCC(=O)NCc3ccccc3OC)c21
AC50 [1]: 12.6 µM [falling, single point]

COc1ccc(OC)c(NS(=O)(=O)c2ccc3c(c2)C(C)(C)C(=O)N3C)c1
AC50 [1]: 15.8 µM [rising, partial curve]

NC(=O)C1CCN(C(=O)c2ccc(NC(=O)c3nsc4ccccc34)cc2)CC1
AC50 [1]: 0.501 µM [falling, full curve]

NC[C@@H]1O[C@@H](O[C@H]2[C@@H](O)[C@H](O[C@@H]3[C@H](O)[C@H](N)C[C@H](N)[C@H]3O[C@@H]3O[C@@H](CO)[C@H](O)[C@H](O)[C@@H]3N)O[C@H]2CO)[C@H](N)[C@H](O)[C@@H]1O
AC50 [1]: 31.6 µM [rising, partial curve, poor fit] [measured here: IkB-luc green channel]

Cc1ccc(NC(=O)CCSc2nnnn2-c2ccc3c(c2)OCO3)cc1C
AC50 [1]: 20 µM [falling, partial curve]

Clc1cccc(-c2ccc(CNCCSc3nnnn3-c3ccccc3)o2)c1
AC50 [1]: 25.1 µM [falling, single point]

O=C(c1ccccc1)N1CCN(CCc2ccncc2)CC1
AC50 [1]: 0.126 µM [falling, full curve, poor fit]

CC(=O)c1ccc(NC(=O)c2nc3ccccc3nc2N2CCCCC2)cc1
AC50 [1]: 31.6 µM [falling, partial curve]

COc1ccc(Cn2c(C(=O)O)c(CNCc3ccccc3F)c3ccc(OC)cc32)cc1
AC50 [1]: 20 µM [falling, single point]

COC(=O)c1ccc(C2c3c(-c4ccccc4O)n[nH]c3C(=O)N2Cc2cccnc2)cc1 (configuration not stated)
AC50 [1]: 39.8 µM [falling, single point]
